Results taken from PMC7264094.
Results are given in words; binding and its absence hold for the method and conditions named. In cells and extracts the contact can be indirect. Some results given as binding are weak or reduced against the parent protein; the word gives no strength.

The chains behind the UniProt entries cited, without tags or fusion partners. Residues count along the entry.
UniProt O35375, residues 21-931: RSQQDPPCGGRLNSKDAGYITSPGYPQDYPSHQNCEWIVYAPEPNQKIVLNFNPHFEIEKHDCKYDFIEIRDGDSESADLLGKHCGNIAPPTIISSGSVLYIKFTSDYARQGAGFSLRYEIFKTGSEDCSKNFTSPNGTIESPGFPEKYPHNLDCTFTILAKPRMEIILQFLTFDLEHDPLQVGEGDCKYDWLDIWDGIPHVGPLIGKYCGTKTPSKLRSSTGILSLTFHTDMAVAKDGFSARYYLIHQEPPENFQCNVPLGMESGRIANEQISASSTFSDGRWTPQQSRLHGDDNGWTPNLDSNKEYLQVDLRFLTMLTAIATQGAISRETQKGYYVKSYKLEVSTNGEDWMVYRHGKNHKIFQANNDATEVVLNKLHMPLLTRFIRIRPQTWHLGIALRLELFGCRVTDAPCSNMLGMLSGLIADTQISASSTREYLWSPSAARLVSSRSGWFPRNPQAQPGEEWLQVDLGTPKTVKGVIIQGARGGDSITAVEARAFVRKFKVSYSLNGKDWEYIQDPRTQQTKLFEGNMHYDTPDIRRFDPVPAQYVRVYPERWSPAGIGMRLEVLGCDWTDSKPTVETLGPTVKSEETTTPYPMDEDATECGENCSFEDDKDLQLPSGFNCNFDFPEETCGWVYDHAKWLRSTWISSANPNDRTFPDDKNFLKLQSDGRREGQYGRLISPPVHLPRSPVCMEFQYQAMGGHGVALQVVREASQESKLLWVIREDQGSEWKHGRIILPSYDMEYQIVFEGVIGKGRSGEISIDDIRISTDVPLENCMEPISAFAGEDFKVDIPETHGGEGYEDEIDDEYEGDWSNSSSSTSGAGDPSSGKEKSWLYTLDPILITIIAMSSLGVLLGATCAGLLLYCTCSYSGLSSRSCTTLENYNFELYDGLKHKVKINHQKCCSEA

Molecular target: Neuropilin-2 (NRP2) (mouse (endogenous in mLMECs)) (UniProt O35375)
Test: co-IP; lysates of control or NRP2 siRNA-transfected mLMECs grown 48 h on fibronectin; 100 μg protein incubated overnight at 4°C with protein-G Dynabeads coupled to an antibody (anti-NRP2; in the reverse direction anti-ITGA5 or anti-Rab11); Western blot

binding: binds
B1: caveolin-1 (protein, UniProt P49817 1-178)
chain: MSGGKYVDSEGHLYTVPIREQGNIYKPNNKAMADEVTEKQVYDAHTKEIDLVNRDPKHLNDDVVKIDFEDVIAEPEGTHSFDGIWKASFTTFTVTKYWFYRLLSTIFGIPMALIWGIYFAILSFLHIWAVVPCIKSFLIEIQCISRVYSIYVHTFCDPLFEAIGKIFSNIRISTQKEI
